Data from paper PMC8354638.
Results are given in words; binding and its absence hold for the method and conditions named. In cells and extracts the contact can be indirect. These calls come from enrichment with a bait or labelling near it, and not all partners need be listed. Where a sequence is shown, tags or fusion partners need not be part of it.

Protein sequences, listed by entry. Tags and fused reporters are not part of them.
UniProt Q5VT06: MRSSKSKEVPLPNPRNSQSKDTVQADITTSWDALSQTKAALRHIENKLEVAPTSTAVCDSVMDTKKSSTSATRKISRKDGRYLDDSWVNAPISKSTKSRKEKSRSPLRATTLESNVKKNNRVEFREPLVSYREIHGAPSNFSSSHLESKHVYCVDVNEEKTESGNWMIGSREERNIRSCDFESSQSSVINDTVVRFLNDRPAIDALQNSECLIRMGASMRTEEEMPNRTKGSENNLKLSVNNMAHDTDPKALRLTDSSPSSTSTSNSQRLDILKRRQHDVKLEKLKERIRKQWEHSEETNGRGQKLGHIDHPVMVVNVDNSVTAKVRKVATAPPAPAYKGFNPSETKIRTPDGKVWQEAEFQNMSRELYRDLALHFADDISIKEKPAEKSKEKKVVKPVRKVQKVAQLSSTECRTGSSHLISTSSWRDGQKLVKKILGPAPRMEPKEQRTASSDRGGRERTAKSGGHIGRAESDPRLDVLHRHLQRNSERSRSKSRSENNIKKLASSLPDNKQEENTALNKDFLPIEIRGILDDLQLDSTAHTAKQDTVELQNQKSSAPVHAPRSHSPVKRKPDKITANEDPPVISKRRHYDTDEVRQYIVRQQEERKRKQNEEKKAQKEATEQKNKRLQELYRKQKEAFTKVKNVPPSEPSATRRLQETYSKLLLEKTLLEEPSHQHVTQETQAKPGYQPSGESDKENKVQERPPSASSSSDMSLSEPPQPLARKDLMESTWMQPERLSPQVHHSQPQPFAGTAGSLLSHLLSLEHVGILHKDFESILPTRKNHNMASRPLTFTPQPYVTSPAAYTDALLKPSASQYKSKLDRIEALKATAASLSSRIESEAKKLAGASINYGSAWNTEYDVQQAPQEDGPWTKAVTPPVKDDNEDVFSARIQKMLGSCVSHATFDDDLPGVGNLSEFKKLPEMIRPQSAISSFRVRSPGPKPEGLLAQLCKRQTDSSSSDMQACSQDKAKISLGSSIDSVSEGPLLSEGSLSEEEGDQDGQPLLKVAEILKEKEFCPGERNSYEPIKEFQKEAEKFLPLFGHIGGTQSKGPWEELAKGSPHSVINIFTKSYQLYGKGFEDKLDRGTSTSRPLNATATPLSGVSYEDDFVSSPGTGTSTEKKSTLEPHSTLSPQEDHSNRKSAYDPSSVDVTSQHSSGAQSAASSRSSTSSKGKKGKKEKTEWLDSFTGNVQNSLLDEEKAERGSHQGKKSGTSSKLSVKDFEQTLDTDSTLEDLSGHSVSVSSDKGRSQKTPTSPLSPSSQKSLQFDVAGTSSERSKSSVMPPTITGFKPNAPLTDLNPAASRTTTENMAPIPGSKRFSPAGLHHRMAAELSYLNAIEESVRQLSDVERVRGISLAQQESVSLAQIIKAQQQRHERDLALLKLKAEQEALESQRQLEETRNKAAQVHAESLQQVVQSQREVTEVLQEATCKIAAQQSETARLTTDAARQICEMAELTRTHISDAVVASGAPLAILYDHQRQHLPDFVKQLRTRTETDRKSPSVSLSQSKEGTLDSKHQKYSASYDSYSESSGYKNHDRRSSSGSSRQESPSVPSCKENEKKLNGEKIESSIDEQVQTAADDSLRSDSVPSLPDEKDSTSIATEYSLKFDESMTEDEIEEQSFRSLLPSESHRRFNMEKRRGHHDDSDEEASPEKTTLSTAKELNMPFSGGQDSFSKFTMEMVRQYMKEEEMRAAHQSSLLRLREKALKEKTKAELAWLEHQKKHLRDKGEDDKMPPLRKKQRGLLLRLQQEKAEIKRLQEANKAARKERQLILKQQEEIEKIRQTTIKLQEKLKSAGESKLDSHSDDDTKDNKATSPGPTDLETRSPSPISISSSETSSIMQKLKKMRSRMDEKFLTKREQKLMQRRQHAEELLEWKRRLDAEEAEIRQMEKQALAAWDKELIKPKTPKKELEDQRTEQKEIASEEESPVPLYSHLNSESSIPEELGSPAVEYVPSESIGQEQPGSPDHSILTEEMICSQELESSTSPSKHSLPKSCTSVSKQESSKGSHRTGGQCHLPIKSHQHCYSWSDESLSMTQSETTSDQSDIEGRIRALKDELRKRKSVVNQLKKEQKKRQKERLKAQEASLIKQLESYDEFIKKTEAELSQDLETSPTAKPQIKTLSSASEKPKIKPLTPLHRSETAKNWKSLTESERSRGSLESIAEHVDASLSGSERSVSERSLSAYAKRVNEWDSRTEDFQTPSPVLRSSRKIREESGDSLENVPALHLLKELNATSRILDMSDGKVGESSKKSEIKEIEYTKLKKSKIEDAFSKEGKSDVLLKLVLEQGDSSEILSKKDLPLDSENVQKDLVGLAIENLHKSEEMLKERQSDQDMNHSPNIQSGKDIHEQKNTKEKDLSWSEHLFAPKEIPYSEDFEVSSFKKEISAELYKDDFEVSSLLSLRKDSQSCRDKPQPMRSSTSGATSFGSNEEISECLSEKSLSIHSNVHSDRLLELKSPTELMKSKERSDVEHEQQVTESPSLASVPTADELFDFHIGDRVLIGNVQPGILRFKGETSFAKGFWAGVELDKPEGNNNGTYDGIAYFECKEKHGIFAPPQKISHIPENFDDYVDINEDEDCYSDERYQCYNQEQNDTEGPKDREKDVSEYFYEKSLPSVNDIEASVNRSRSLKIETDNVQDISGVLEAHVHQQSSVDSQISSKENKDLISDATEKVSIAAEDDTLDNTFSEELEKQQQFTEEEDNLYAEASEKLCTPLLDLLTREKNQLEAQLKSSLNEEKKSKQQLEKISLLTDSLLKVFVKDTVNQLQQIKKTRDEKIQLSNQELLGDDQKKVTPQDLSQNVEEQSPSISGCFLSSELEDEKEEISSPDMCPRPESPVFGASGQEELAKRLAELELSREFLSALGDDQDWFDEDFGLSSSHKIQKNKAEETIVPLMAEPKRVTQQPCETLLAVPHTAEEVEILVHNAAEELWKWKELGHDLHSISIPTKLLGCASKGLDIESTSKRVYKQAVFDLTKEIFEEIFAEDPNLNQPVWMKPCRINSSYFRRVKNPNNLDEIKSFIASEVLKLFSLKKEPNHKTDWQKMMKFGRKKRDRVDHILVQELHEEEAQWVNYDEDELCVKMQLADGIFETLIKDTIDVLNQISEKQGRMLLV

Molecular target: T1, FLAG-CEP78 (human) (UniProt Q5JTW2)
T1 sequence: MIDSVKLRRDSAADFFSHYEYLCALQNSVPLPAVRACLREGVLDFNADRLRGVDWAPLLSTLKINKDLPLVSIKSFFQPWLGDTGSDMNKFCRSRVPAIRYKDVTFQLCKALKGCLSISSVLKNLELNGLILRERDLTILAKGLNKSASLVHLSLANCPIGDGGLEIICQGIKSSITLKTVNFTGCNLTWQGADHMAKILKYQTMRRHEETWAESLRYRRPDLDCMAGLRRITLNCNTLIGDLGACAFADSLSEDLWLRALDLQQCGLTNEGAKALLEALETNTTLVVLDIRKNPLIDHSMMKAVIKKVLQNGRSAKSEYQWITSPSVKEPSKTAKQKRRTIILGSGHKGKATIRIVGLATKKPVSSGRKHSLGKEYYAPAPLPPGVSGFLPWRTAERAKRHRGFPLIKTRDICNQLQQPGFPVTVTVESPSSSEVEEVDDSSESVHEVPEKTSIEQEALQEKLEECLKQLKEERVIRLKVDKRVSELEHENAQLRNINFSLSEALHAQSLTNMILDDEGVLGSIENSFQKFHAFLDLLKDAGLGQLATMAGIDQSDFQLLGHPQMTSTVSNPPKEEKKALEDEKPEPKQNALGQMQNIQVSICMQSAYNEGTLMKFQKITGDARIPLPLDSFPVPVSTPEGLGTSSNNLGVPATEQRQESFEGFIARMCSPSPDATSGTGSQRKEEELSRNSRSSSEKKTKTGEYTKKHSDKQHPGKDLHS
Assay: affinity purification with mass spectrometry; SILAC-labelled 293T cells transfected with FLAG-CEP78, FLAG-CEP78^L150S or FLAG-Ap80 (control); lysis in modified EBC buffer, FLAG IP, LC-MS of the pellets

Q: For CEP350 (from UniProt Q5VT06 1-3117), which binding is on record?
A: Its binding is “binds”.
